Experimental data: PubChem BioAssay AID686937 (Drosophila RNAi Screening Center, 2013)
The screen tested about 23,000 reagents; below is an unselected part of those that have a named target and a result. 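Reduced-secretion tags in replicate 1 do not always agree with the z-scores; no criterion for assigning the tags was given.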 The numbers tell different reagents against one gene apart. A plus sign joins genes that one reagent is predicted to hit. Further read-outs or replicates are left out here. No sequences are given here. The record does not give: the amount of reagent.

Aim: 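Knock-downs that reduce output of a secreted reporter enzyme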 (primary screen)
Cell system: Drosophila S2 cells expressing secreted horseradish peroxidase
Reagents: long dsRNA against Drosophila genes
Duration: about 5.5 days (5 days dsRNA, then 12 h reporter induction)
Conditions: reporter expression induced after 5 days of dsRNA, read 12 h later; inducer not stated
Measured: 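Chemiluminescent measurement of peroxidase in the medium 12 h after reporter induction, following 5 days of dsRNA, given as a z-score per plate; higher means more secretion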
Scale: z-score: higher = more reporter secreted into medium

| gene | reagent no. | z-score, replicate 1 | z-score, replicate 2 |
| --- | --- | --- | --- |
| Pvf1 (PDGF- and VEGF-related factor 1) | 1 | 0.23 | 0.12 |
| CG1824 | 1 | 0.18 | 0.24 |
| CG17344 | 1 | 0.17 | 0.25 |
| CG1492 | 1 | -0.37 | -0.29 |
| Elo68alpha (Elongase 68alpha) | 1 | -0.21 | -0.09 |
| Iyd (Iodotyrosine deiodinase) | 1 | 0.44 | 0.32 |
| Iyd (Iodotyrosine deiodinase) | 2 | 0.21 | 0.19 |
| Aduk (Another Drosophila Unc-51-like kinase) | 1 | 0.4 | 0.1 |
| RasGAP1 (Ras GTPase activating protein 1) | 1 | 0.76 | 0.57 |
| Pngl (PNGase-like) | 1 | 0.44 | 0.39 |
| CG8545 | 1 | 0.08 | 0.37 |
| Arf1 (ADP ribosylation factor 1) | 1 | -2.16 | -1.48 |
| Gr92a (Gustatory receptor 92a) | 1 | 0.1 | -0.56 |
| Rh5 (Rhodopsin 5) | 1 | 0.36 | 0.28 |
| sub (subito) | 1 | 0.36 | 0.32 |
| CG5895 | 1 | 0.48 | 0.29 |
| CG14006 | 1 | 0.23 | 0.01 |
| Mal-A3 (Maltase A3) | 1 | 0.04 | -0.02 |
| CG32806 | 1 | 0.18 | 1.18 |
| CG11356 | 1 | 0.31 | 0.58 |
| Rad51D (Rad51 recombinase D) | 1 | 0.28 | 0.27 |
| CG5707 | 1 | 0.22 | 0.16 |
| Brd7-9 (Bromodomain containing 7/9) | 1 | -0.13 | 0.19 |
| CG15443 | 1 | 0.64 | 0.35 |
| DUBAI + Tmem18 | 1 | 0.56 | 0.16 |
| Tsen2 (tRNA splicing endonuclease subunit 2) | 1 | -0.89 | -0.04 |
| Tango2 (Transport and Golgi organization 2) | 1 | -2.92 | -0.92 |
| Tango2 (Transport and Golgi organization 2) | 2 | 0.29 | -0.54 |
| fusl (fuseless) | 1 | 0.07 | 0.14 |
| Brd (Bearded) | 1 | 0.36 | 0.28 |
| Sgf29 (SAGA-associated factor 29kDa) | 1 | 0.5 | 0.49 |
| Ets21C (Ets at 21C) | 1 | 0.2 | 0.25 |
| CG33791 + CG18170 | 1 | 0.45 | 0.35 |
| CG33791 + CG18170 | 2 | 0.34 | 0.27 |
| CG8475 | 1 | 0.06 | 0.29 |
| Hem (HEM-protein) | 1 | 0.4 | 0.2 |
| Cpr72Ec (Cuticular protein 72Ec) | 1 | 0.4 | 0.51 |
| Hsc70-2 (Heat shock protein 70 cognate 2) | 1 | 0.59 | -0.7 |
| CG43116 | 1 | -1.6 | -0.29 |
| CG42673 | 1 | 0.38 | 0.44 |
| CG42673 | 2 | -3.96 | -2.93 |
| CG42673 | 3 | -0.78 | -0.15 |
| CG42673 | 4 | -0.25 | 0.24 |
| CG42673 | 5 | 0.37 | 0.1 |
| CG42673 | 6 | 0.41 | 0.44 |
| CG12096 | 1 | -0.15 | -0.07 |
| tw (twisted) | 1 | 0.49 | 0 |
| CG9068 | 1 | 0.3 | 0.35 |
| CG15547 | 1 | 0.3 | 0.31 |
| CG14132 | 1 | -0.06 | -0.13 |
| CG7352 | 1 | 0.23 | 0.25 |
| Inx5 (Innexin 5) | 1 | 0.56 | 0.43 |
| CCT8 (Chaperonin containing TCP1 subunit 8) | 1 | -0.09 | -0.46 |
| CG7443 | 1 | 0.51 | 0.69 |
| GluRIIC (Glutamate receptor IIC) | 1 | 0.22 | 0.49 |
| Pcf11 (Pcf11 cleavage and polyadenylation factor subunit) | 1 | -3.82 | -2.42 |

Part of the list above in another layout:
gene,reagent no.,"z-score, replicate 1","z-score, replicate 2"
CG42673,2,-3.96,-2.93
CG42673,3,-0.78,-0.15
CG42673,4,-0.25,0.24
CG42673,5,0.37,0.1
CG42673,6,0.41,0.44
CG12096,1,-0.15,-0.07
tw (twisted),1,0.49,0
